Data as given in PubChem BioAssay AID602196 (INSERM, 2012)

Purpose: 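Genes whose knock-down alters cisplatin killing of lung cancer cells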
Cells: human A549 lung cancer cells
Reagents: siRNA pair against human genes
Duration: 48 h transfection before cisplatin; time from cisplatin to read-out not stated
Challenge: cisplatin at a dose killing half of control-siRNA cells; exact dose and duration not given
Measured: 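Cisplatin cell death as a shift from the 50% death seen with control siRNA; siRNAs toxic or growth-blocking alone scored 0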
Scale: two-siRNA summed score (-2 to +2): higher = both siRNAs protect from cisplatin killing; -2 means both sensitise
Call rule: 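siRNAs harmful alone (LDH or WST-1) get 0; others get +1 for less and -1 for more cisplatin killing; genes are active when the two siRNAs give the same sign, summing to ±2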
Meaning of the calls: active = both siRNAs shift cisplatin killing the same way; inactive = no consistent shift, or siRNA harmful alone
Shown is an unselected part of about 23,000 deposited reagents. Over the whole deposit, 455 (2%) are marked active. 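Active includes both protection and sensitisation; some change values fall well beyond the stated -50 to +50 range.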 Further read-outs or replicates are left out here. Not stated in the record: the amount of reagent.

For LOC387787 [SID131520569], how do the results read?
two-siRNA summed score (-2 to +2): 1; outcome: inactive

With HTR3B [SID131501616], what was measured?
two-siRNA summed score (-2 to +2): -1; outcome: inactive

What is on record for FAM9B [SID131507974]?
two-siRNA summed score (-2 to +2): 0; outcome: inactive

With POU6F1 [SID131502803], how do the results read?
two-siRNA summed score (-2 to +2): 0; outcome: inactive

For OCIAD1 [SID131508448], what was measured?
two-siRNA summed score (-2 to +2): 0; outcome: inactive

What did the screen give for LOC402188 [SID131501678]?
two-siRNA summed score (-2 to +2): -1; outcome: inactive

Which result is listed for LOC441861 [SID131519077]?
two-siRNA summed score (-2 to +2): 1; outcome: inactive

For LOC401059 [SID131508759], what does the deposit list?
two-siRNA summed score (-2 to +2): 0; outcome: inactive

What is on record for CDHR4 [SID131513941]?
two-siRNA summed score (-2 to +2): 0; outcome: inactive

How did the screen score LOC283523 [SID131512209]?
two-siRNA summed score (-2 to +2): 0; outcome: inactive

With ST14 [SID131508284], how do the results read?
two-siRNA summed score (-2 to +2): 0; outcome: inactive

With SPP1 [SID131508279], how do the results read?
two-siRNA summed score (-2 to +2): 0; outcome: inactive

Sorted by “two-siRNA summed score (-2 to +2)” (lowest first): 2 of the entries above.
CDHR4 [SID131513941] → two-siRNA summed score (-2 to +2): 0; outcome: inactive
LOC283523 [SID131512209] → two-siRNA summed score (-2 to +2): 0; outcome: inactive
